Results deposited as PubChem BioAssay AID743121 (NCATS, 2013).
The deposit covers about 26,000 reagents; below is a random part of them. Of all reagents, 167 (0.63%) were called active. 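Calls are per gene from RSA p-values that are not deposited; an individual active-marked siRNA can sensitise only weakly.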 The numbers tell different reagents against one gene apart. Not all columns of the deposit are shown.

- Screen: 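Knock-downs that sensitise breast cancer cells to camptothecin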 (primary screen)
- Cells: MDA-MB-231 cells, a human breast cancer line
- Knock-down reagent: single siRNA against human genes, 20 nM siRNA (0.8 pmol per well)
- Timing: 120 h (drug added 48 h after transfection, read 72 h later)
- Challenge: camptothecin 20 nM (about EC30) for 72 h; vehicle 0.1% DMSO in parallel plates
- Measured: 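Cell viability by ATP luminescence (CellTiter-Glo) as % of non-targeting siRNA wells, and the log2 ratio of viability without drug over viability with camptothecin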
- Scale: log2 vehicle/camptothecin viability: higher = stronger sensitisation to camptothecin; viability with camptothecin: higher = more viable cells
- Rule for the call: 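Each gene scored by redundant siRNA activity (RSA) over its individual siRNA ratios; a gene is called active at p < 0.001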

What is on record for CCK #1?
log2 vehicle/camptothecin viability: 0.0742; viability with camptothecin (% of control): 91.4; call: inactive

For CCK #2, what does the deposit list?
log2 vehicle/camptothecin viability: -0.349; viability with camptothecin (% of control): 64.5; call: inactive

For CCK #3, what was measured?
log2 vehicle/camptothecin viability: 0.464; viability with camptothecin (% of control): 67.7; call: inactive

What is on record for OSMR #1?
log2 vehicle/camptothecin viability: -0.21; viability with camptothecin (% of control): 44.6; call: inactive

Which result is listed for OSMR #2?
log2 vehicle/camptothecin viability: -0.445; viability with camptothecin (% of control): 7.49; call: inactive

With OSMR #3, what was measured?
log2 vehicle/camptothecin viability: -0.117; viability with camptothecin (% of control): 71.5; call: inactive

Which result is listed for DNAAF3 #1?
log2 vehicle/camptothecin viability: -0.233; viability with camptothecin (% of control): 37.6; call: inactive

With DNAAF3 #2, what was measured?
log2 vehicle/camptothecin viability: 0.2; viability with camptothecin (% of control): 26.5; call: inactive

What did the screen give for DNAAF3 #3?
log2 vehicle/camptothecin viability: -0.309; viability with camptothecin (% of control): 81.4; call: inactive

What did the screen give for DNAAF3 #4?
log2 vehicle/camptothecin viability: 0.0795; viability with camptothecin (% of control): 89.4; call: inactive

For CADM2 #1, what was measured?
log2 vehicle/camptothecin viability: -0.0156; viability with camptothecin (% of control): 113; call: inactive

For CADM2 #2, how do the results read?
log2 vehicle/camptothecin viability: 0.206; viability with camptothecin (% of control): 64.5; call: inactive

How did the screen score CADM2 #3?
log2 vehicle/camptothecin viability: -0.169; viability with camptothecin (% of control): 74.3; call: inactive

For CADM2 #4, what does the deposit list?
log2 vehicle/camptothecin viability: 0.191; viability with camptothecin (% of control): 86.1; call: inactive

For GDF6 #1, what was measured?
log2 vehicle/camptothecin viability: -0.173; viability with camptothecin (% of control): 102; call: inactive

For GDF6 #2, what does the deposit list?
log2 vehicle/camptothecin viability: -0.117; viability with camptothecin (% of control): 103; call: inactive

What did the screen give for GDF6 #3?
log2 vehicle/camptothecin viability: 0.0282; viability with camptothecin (% of control): 92.7; call: inactive

What is on record for GDF6 #4?
log2 vehicle/camptothecin viability: -0.212; viability with camptothecin (% of control): 100; call: inactive

With TNFSF18 #1, what does the deposit list?
log2 vehicle/camptothecin viability: 0.0119; viability with camptothecin (% of control): 89.1; call: inactive

With TNFSF18 #2, how do the results read?
log2 vehicle/camptothecin viability: -0.147; viability with camptothecin (% of control): 53.9; call: inactive

Which result is listed for TNFSF18 #3?
log2 vehicle/camptothecin viability: 0.138; viability with camptothecin (% of control): 81.4; call: inactive

For TNFSF18 #4, what does the deposit list?
log2 vehicle/camptothecin viability: -0.359; viability with camptothecin (% of control): 103; call: inactive

What is on record for PTPN9 #1?
log2 vehicle/camptothecin viability: -0.0395; viability with camptothecin (% of control): 80.7; call: inactive

How did the screen score PTPN9 #2?
log2 vehicle/camptothecin viability: 0.0946; viability with camptothecin (% of control): 102; call: inactive

What did the screen give for PTPN9 #3?
log2 vehicle/camptothecin viability: -0.19; viability with camptothecin (% of control): 108; call: inactive

For PTPN9 #4, what does the deposit list?
log2 vehicle/camptothecin viability: 0.817; viability with camptothecin (% of control): 40.5; call: inactive

For VLDLR #1, how do the results read?
log2 vehicle/camptothecin viability: -0.188; viability with camptothecin (% of control): 56.8; call: inactive

How did the screen score VLDLR #2?
log2 vehicle/camptothecin viability: 1.27; viability with camptothecin (% of control): 19; call: inactive

How did the screen score VLDLR #3?
log2 vehicle/camptothecin viability: 0.00251; viability with camptothecin (% of control): 89.7; call: inactive

For VLDLR #4, what was measured?
log2 vehicle/camptothecin viability: -0.313; viability with camptothecin (% of control): 76.5; call: inactive

For PTGER1 #1, how do the results read?
log2 vehicle/camptothecin viability: -0.606; viability with camptothecin (% of control): 30.1; call: inactive

How did the screen score PTGER1 #2?
log2 vehicle/camptothecin viability: -0.404; viability with camptothecin (% of control): 69.9; call: inactive

Which result is listed for PTGER1 #3?
log2 vehicle/camptothecin viability: -0.431; viability with camptothecin (% of control): 30; call: inactive

For PTGER1 #4, what does the deposit list?
log2 vehicle/camptothecin viability: -0.00741; viability with camptothecin (% of control): 82; call: inactive

For MPND #1, how do the results read?
log2 vehicle/camptothecin viability: -0.329; viability with camptothecin (% of control): 72.7; call: inactive

How did the screen score MPND #2?
log2 vehicle/camptothecin viability: 0.156; viability with camptothecin (% of control): 56.3; call: inactive

How did the screen score MPND #3?
log2 vehicle/camptothecin viability: -0.00431; viability with camptothecin (% of control): 49; call: inactive

Already shown: 6 of the entries above.
PTPN9 #3: log2 vehicle/camptothecin viability = -0.19; viability with camptothecin (% of control) = 108; call = inactive
PTPN9 #4: log2 vehicle/camptothecin viability = 0.817; viability with camptothecin (% of control) = 40.5; call = inactive
VLDLR #1: log2 vehicle/camptothecin viability = -0.188; viability with camptothecin (% of control) = 56.8; call = inactive
VLDLR #2: log2 vehicle/camptothecin viability = 1.27; viability with camptothecin (% of control) = 19; call = inactive
VLDLR #3: log2 vehicle/camptothecin viability = 0.00251; viability with camptothecin (% of control) = 89.7; call = inactive
VLDLR #4: log2 vehicle/camptothecin viability = -0.313; viability with camptothecin (% of control) = 76.5; call = inactive
